{"source": "patent US20110143366A1", "about": "“PROTEIN BIOMARKERS FOR IN VITRO TESTING OF DEVELOPMENTAL TOXICITY AND ENBRYOTOXICITY OF CHEMICAL SUBSTANCES” (PROTEOSYS AG, priority 2008, published 2011)", "origin": "cited, not measured here", "system": "Cardiomyocytes differentiated from murine embryonic stem cells (EST model)", "conditions": "substances with known embryotoxic potency used in the EST model", "data": [{"compound": "NS(=O)(=O)c1cc(C(=O)O)c(NCc2ccco2)cc1Cl", "note": "[furosemide]", "values": [{"measurement": "Embryotoxicity class of the substance", "value": "moderately embryotoxic"}]}]}
